Experimental data: patent US20250144104

What was measured:
[1] = target: T1, YTHDC2 YTH domain (UniProt Q9H6S0); assay: FP; details: m6A at position 8; Kd higher than for other YTH domains; purified recombinant protein; protein details: N-terminal His-tag (pET28a), E. coli BL21(DE3); label: 5'-FAM
T1 sequence (looked up): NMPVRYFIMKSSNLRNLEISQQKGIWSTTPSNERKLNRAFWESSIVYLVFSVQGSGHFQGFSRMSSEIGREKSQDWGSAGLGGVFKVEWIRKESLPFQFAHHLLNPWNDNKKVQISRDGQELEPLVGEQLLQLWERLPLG

[2] = target: T2, YTHDF1 YTH domain (UniProt Q9BYJ9); assay: FP; details: specific binding to m6A-RNA stated in p283; purified recombinant protein; protein details: N-terminal His-tag (pET28a), E. coli BL21(DE3); label: 5'-FAM; variant of FAM-m6A-RNA
T2 sequence (looked up): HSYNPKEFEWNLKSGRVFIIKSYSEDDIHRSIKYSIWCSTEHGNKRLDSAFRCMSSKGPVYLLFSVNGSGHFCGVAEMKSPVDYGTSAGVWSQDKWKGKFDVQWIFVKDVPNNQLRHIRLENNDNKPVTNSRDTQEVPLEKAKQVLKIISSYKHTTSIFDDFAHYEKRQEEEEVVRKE

Sequence | binding result [1] | binding result [2]
GAACCGGACUGUCUUA [FAM-m6A-RNA] | binds more weakly | –
GAACCGGACUGUCUUA [FAM-A-RNA] | – | binds more weakly

A weaker result is weaker than the reference pair of the same experiment. Tags and fusion partners may be left off the protein sequences shown.
